Assay in all cases: protein microarray (ProtoArray v5.0), streptavidin-Alexa Fluor 647
What all share (conditions): 3'-biotin; 20 mM Tris (pH 7.5), 5 mM MgCl2, 100 mM KCl, 0.1% Tween-20, A/T-rich and random oligonucleotide blockers; temperature not stated; high values mean tight binding

Assay [1] relates to TMEM186 (human).
In assay [2] the test system is TMEM19 (human).
In assay [3] the test system is TMEM25 (human).
The subject of assay [4] is TMEM27 (human).
In assay [5] the test system is TMEM41A (human).
The subject of assay [6] is TMEM68 (human).
In assay [7] the test system is TMEM98 (human).
Assay [8] relates to TNFSF15 (human).
The subject of assay [9] is TNIP1 (human).
Assay [10] has as its system TOM1-like protein 2 (human).

This is one part of the list.

Take “GGTGACAGGGGTATGGGGAGGGG [G4-2 biotinylated (Ct1)]”: the binding signal was -0.374 z-score in assay [1]; -0.385 z-score in assay [2]; -0.387 z-score in assay [3]; -0.385 z-score in [4]; -0.373 z-score in assay [5]; -0.372 z-score in [6]. The binding signal in [7] is -0.37 z-score; in assay [8], -0.36 z-score; in assay [9], -0.372 z-score; in [10], -0.401 z-score.

Values taken from PMC5996148.
